From publication doi:10.1101/650358 come the findings set out here.

No constants are given. Whether binding was seen depends on the method and setting. In cells and extracts the contact can be indirect. A result given as binding can be weak or reduced; the word gives no strength. Tags and fused reporters may be left off the sequences shown.

For this experiment, the target named is T1, Arabidopsis thaliana LONESOME HIGHWAY (AtLHW), BiFC fusion (Arabidopsis thaliana) (UniProt Q9XIN0).
T1 sequence: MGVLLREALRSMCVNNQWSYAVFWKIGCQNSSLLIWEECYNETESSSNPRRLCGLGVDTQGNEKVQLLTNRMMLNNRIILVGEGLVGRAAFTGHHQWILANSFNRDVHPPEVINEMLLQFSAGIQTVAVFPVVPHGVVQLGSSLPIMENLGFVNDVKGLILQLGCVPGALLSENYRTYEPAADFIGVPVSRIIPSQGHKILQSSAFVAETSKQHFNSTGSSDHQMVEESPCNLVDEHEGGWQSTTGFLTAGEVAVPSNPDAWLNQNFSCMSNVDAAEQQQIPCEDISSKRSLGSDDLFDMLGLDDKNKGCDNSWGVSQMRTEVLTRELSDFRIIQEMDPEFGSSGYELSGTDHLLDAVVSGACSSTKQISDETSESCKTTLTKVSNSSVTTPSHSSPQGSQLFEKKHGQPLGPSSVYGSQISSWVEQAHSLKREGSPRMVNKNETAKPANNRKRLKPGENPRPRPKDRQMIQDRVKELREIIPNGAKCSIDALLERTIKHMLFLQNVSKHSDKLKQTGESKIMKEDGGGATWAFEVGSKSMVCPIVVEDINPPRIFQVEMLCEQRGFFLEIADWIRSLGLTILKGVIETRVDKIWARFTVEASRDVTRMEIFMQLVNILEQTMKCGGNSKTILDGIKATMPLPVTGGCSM
The experiment is described as follows: split reporter.

On to “Klebsormidium nitens TMO5 ortholog (KnTMO5), BiFC fusion”, for which the binding result is “binds”.
